{"source": "patent US20060094692A1", "about": "“Pharmaceutical formulations of camptothecins and process for making same” (BioNumerik Pharmaceuticals, Inc., priority 2004, published 2006)", "origin": "cited, not measured here", "conditions": "closed E-ring lactone form, in water"}
{"smiles": "CC[C@@]1(O)C(=O)OCc2c1cc1n(c2=O)Cc2cc3ccccc3nc2-1", "note": "[CPT, Camptothecin]", "values": [{"measurement": "water solubility", "value": "approximately 0.1 microgram of drug dissolving in 1 mL of water"}]}
